Results on 4 sequences are retold here after US20220079972.

By UniProt entry, the sequences of proteins in these tests, tags left out. Residues count along the entry.
UniProt P61244, 2-160: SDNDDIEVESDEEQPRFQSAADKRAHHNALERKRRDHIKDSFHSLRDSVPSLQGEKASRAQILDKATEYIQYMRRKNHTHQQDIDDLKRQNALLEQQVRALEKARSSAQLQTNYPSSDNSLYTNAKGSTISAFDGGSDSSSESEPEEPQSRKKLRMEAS

For at least one entry, the source does not settle the construct or the ends of the probe. At least one result comes from cells or an extract, where the contact may be indirect. A negative result means that nothing was seen under these conditions.

In this series the target is MAX (UniProt P61244). The experiment in a line: pull-down. As to conditions: protein in cells.
Setting [1] is: RIP RT-PCR, only F1 reported as specifically bound, protein details: endogenous in ARPE-19 cells, variant of lncEGFL7OS.

As to “UGGGCUCAGGCCCAGAGUGCCAGCUUUGCCCUAUCCCAUAGCCUGGAGCCACCACAGGAGGGGCACUCCACUCUCUUGGGCUCCUGGAGCCUCAGAGGCAGAGCCAGCCGGGAGUGCAGGAGGGAGAACUUUCCUGUGGACGUCCUGUGUUCUCCAGACGCAGAGAACCCUCAUCAACCGAGGGGGAGGUCACUUCCGAAUCCACAGAUGGCGUGUGAGUGCAUGGCGAGCGCCUCCAGGACACACUUACUGUUCCCUUGCUCUGGCCAGACGCCAGCCGGACCCUGUGUGUGCGCGCCGUGCUGCUCUUUGCAGCUGCCUGCAAGGGGUUCCUGCGAAGACCAGCACCUUGGGGAAGAGCCUGCGGCUGAACUUGAACUCGCAGCUACCUGAGUCAGACCUGUGCUUUUUCACCUCUACGGAAGAUGUCAGAGCGUUUCCCUAGCAAUGUUUUAGAAGUUACUUCUGUCUGGAAAAAAAUGGAAAAAAUGGCAAAUUAUGUUAUGUAUAAUUUGAUAAUUUUAAAGAAUUAAUGAUGUAAUUAUUACUCAAACCCA [lncEGFL7OS]”, where the note is “RIP-PCR in HUVEC nuclear lysate, increased by lncEGFL7OS overexpression, protein details: endogenous, antibody Santa Cruz sc-197”, the binding result is “binds”.

Consider “UGGGCUCAGGCCCAGAGUGCCAGCUUUGCCCUAUCCCAUAGCCUGGAGCCACCACAGGAGGGGCACUCCACUCUCUUGGGCUCCUGGAGCCUCAGAGGCAGAGCCAGCCGGGAGUGCAGGAGGGAGAACUUUCCUGUGGACGUCCUGUGUUCUCCAGACGCAGAGAACCCUCAUCAACCGAGGGGGAGGUCACUUCCGAAUCCACAGAUGGCGUGUGAGUGCAUGGCGAGCGCCUCCAG [lncEGFL7OS F1 (1-239)]”, for which, where the note is “RIP RT-PCR in transfected ARPE-19, major MAX-binding domain, protein details: endogenous in ARPE-19 cells, variant of lncEGFL7OS”, the binding result is on record as “binds”. As for “AUGGCGUGUGAGUGCAUGGCGAGCGCCUCCAGGACACACUUACUGUUCCCUUGCUCUGGCCAGACGCCAGCCGGACCCUGUGUGUGCGCGCCGUGCUGCUCUUUGCAGCUGCCUGCAAGGGGUUCCUGCGAAGACCAGCACCUUGGGGAAGAGCCUGCGGCUGAACUUGAACUCGCAGCUACCUGA [lncEGFL7OS F2 (208-393)]”, under setting [1], the binding result is on record as “no binding”. With “AACUCGCAGCUACCUGAGUCAGACCUGUGCUUUUUCACCUCUACGGAAGAUGUCAGAGCGUUUCCCUAGCAAUGUUUUAGAAGUUACUUCUGUCUGGAAAAAAAUGGAAAAAAUGGCAAAUUAUGUUAUGUAUAAUUUGAUAAUUUUAAAGAAUUAAUGAUGUAAUUAUUACUCAAACCCA [lncEGFL7OS F3 (377-557)]”, the binding result under setting [1] was “no binding”.
